The source of these data is paper PMC10175288.

Chains of the proteins cited; added tags and fusions are not shown.
UniProt P49841: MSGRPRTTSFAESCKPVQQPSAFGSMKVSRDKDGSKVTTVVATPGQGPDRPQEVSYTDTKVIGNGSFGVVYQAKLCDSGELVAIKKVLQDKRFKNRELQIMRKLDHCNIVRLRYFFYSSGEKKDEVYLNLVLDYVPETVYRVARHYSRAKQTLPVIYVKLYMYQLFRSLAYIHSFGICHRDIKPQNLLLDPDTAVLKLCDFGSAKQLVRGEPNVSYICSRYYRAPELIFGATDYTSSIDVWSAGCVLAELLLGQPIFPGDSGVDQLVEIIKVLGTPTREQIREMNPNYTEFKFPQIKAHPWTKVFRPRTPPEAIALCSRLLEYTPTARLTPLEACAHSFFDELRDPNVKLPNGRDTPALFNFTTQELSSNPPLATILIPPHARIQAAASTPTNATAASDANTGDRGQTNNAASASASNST
UniProt P35222: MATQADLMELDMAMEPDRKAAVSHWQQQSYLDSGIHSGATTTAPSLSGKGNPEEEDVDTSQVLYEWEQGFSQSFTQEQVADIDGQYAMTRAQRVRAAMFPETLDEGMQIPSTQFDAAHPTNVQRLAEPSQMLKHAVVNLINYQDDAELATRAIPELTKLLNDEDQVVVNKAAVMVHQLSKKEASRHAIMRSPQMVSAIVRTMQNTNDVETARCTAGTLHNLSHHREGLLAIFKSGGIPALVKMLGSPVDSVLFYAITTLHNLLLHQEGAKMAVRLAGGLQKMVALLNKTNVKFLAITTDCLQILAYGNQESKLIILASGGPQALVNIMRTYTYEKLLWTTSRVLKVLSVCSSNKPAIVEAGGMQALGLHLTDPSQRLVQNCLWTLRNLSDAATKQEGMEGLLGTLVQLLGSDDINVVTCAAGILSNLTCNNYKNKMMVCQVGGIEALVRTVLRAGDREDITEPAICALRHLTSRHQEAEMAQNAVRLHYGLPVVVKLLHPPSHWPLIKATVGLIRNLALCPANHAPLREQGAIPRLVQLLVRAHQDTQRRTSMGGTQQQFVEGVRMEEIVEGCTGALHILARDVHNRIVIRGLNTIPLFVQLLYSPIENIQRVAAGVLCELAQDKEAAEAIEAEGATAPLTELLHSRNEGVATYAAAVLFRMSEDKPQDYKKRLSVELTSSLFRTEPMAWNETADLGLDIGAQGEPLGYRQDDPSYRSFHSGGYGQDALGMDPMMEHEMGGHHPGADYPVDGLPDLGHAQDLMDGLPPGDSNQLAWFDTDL

These are yes or no findings as the source states them, for the method shown. Binding seen in cells or lysates may run through a third protein. These calls come from enrichment with a bait or labelling near it, and not all partners need be listed. Where a sequence is shown, tags or fusion partners need not be part of it.

In this test the target is T1, fusion p140Cap-BirA-HA protein (UniProt Q9QWI6).
T1 sequence: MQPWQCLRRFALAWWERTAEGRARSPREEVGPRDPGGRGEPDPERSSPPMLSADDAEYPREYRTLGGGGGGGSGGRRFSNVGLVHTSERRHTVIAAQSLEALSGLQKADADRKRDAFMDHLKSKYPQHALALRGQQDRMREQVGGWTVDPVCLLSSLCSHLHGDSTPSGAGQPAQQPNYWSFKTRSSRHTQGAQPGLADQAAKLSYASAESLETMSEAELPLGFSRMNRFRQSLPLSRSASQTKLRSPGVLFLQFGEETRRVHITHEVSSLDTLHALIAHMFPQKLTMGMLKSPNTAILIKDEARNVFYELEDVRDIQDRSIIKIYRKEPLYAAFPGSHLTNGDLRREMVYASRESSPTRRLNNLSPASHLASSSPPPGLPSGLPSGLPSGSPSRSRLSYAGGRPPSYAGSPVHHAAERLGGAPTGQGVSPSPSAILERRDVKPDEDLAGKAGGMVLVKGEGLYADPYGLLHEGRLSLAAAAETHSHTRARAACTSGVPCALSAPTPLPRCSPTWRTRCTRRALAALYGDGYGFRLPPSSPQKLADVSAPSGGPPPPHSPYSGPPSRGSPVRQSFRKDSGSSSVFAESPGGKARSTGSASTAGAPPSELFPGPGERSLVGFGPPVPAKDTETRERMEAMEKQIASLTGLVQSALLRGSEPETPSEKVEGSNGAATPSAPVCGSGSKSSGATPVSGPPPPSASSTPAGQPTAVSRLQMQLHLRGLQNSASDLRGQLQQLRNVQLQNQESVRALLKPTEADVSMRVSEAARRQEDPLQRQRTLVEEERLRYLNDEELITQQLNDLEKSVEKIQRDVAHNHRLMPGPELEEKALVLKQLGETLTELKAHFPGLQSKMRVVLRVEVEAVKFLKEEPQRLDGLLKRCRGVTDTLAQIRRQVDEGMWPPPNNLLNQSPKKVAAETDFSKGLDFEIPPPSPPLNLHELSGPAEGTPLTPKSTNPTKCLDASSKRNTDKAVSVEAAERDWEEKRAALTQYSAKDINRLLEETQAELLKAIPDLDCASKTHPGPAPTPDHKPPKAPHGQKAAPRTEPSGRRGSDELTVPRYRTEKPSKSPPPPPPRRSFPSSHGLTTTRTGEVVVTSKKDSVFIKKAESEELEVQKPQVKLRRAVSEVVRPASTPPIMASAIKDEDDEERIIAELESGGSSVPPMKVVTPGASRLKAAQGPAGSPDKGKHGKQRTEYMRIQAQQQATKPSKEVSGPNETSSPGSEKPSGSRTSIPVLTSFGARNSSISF
Put plainly: proximity labelling; BioID in HEK293 cells transfected with p140Cap-BirA-HA or BirA-HA together with Axin1-GFP; 50 uM D-biotin for 3 h; biotinylated proteins isolated on streptavidin agarose and immunoblotted.
As for Axin1-GFP (from UniProt O15169-1 1-862), the binding entry is listed as “binds”.
The result for “GSK-3β (endogenous in HEK293) (from UniProt P49841 1-420) (enzyme)” reads “binds”; that for “total β-Catenin (endogenous in HEK293) (from UniProt P35222 1-781)”, “binds”; that for “triple phosphorylated inactive β-Catenin (endogenous in HEK293) (from UniProt P35222 1-781)”, “binds”.
